The target in assay [1] is Myc-tagged EZH2 (human) (UniProt Q15910). The assay is described as follows: co-IP.
Assay [2] deals with endogenous EZH2 (human (endogenous in C4-2)) (UniProt Q15910). The assay is described as follows: co-IP.

Sequences of proteins named here, by UniProt entry; tags and fusion partners are left off.
UniProt Q15910: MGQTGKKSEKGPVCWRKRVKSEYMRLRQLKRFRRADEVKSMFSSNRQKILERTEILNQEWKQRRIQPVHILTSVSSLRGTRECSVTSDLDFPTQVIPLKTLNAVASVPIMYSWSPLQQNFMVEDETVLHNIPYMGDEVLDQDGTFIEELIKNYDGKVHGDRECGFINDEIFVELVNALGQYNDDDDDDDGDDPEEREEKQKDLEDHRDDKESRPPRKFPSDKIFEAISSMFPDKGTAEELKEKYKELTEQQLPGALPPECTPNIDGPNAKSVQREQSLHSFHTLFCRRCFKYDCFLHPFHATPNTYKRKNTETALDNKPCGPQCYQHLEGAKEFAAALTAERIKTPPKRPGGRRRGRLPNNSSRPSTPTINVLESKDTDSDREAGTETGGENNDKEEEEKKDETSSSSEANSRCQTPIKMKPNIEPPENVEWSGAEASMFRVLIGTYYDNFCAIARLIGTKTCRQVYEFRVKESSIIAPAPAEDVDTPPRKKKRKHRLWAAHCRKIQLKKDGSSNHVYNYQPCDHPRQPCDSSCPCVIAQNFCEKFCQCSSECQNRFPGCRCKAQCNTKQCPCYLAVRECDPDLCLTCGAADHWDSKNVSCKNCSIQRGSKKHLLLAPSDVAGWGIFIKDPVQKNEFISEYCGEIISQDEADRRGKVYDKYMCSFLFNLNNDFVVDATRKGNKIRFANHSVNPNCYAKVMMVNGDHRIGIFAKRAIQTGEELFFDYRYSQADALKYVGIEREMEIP
UniProt P11940: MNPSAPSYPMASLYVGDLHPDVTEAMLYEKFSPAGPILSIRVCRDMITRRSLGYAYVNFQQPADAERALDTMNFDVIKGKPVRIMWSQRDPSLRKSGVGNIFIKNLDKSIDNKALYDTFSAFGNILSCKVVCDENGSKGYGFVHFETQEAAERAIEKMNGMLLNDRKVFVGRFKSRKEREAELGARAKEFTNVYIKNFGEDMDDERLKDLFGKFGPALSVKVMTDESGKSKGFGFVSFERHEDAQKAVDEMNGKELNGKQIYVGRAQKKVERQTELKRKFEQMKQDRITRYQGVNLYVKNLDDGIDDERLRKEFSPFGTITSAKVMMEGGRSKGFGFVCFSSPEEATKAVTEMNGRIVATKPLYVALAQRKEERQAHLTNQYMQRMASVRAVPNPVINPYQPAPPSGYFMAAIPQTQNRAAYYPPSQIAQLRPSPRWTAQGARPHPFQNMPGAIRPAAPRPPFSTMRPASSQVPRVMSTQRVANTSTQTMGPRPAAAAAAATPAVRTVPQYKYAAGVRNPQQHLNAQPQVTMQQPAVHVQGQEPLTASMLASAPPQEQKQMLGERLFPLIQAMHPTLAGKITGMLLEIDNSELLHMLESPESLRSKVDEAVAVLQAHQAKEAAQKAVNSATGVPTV

Our source for the binding values is article doi:10.1101/298737.

No constants are given. Whether binding was seen depends on the method and setting. In cells and extracts the contact can be indirect. Some results given as binding are weak or reduced against the parent protein; the word gives no strength.

“poly(A)-binding protein-1 (from UniProt P11940 1-636)”: the binding entry in assay [1] and in assay [2] was “binds” in each case.

B1: eIF4G2 (protein, UniProt P78344 1-907)
chain: MESAIAEGGASRFSASSGGGGSRGAPQHYPKTAGNSEFLGKTPGQNAQKWIPARSTRRDDNSAANNSANEKERHDAIFRKVRGILNKLTPEKFDKLCLELLNVGVESKLILKGVILLIVDKALEEPKYSSLYAQLCLRLAEDAPNFDGPAAEGQPGQKQSTTFRRLLISKLQDEFENRTRNVDVYDKRENPLLPEEEEQRAIAKIKMLGNIKFIGELGKLDLIHESILHKCIKTLLEKKKRVQLKDMGEDLECLCQIMRTVGPRLDHERAKSLMDQYFARMCSLMLSKELPARIRFLLQDTVELREHHWVPRKAFLDNGPKTINQIRQDAVKDLGVFIPAPMAQGMRSDFFLEGPFMPPRMKMDRDPLGGLADMFGQMPGSGIGTGPGVIQDRFSPTMGRHRSNQLFNGHGGHIMPPTQSQFGEMGGKFMKSQGLSQLYHNQSQGLLSQLQGQSKDMPPRFSKKGQLNADEISLRPAQSFLMNKNQVPKLQPQITMIPPSAQPPRTQTPPLGQTPQLGLKTNPPLIQEKPAKTSKKPPPSKEELLKLTETVVTEYLNSGNANEAVNGVREMRAPKHFLPEMLSKVIILSLDRSDEDKEKASSLISLLKQEGIATSDNFMQAFLNVLDQCPKLEVDIPLVKSYLAQFAARAIISELVSISELAQPLESGTHFPLFLLCLQQLAKLQDREWLTELFQQSKVNMQKMLPEIDQNKDRMLEILEGKGLSFLFPLLKLEKELLKQIKLDPSPQTIYKWIKDNISPKLHVDKGFVNILMTSFLQYISSEVNPPSDETDSSSAPSKEQLEQEKQLLLSFKPVMQKFLHDHVDLQVSALYALQVHCYNSNFPKGMLLRFFVHFYDMEIIEEEAFLAWKEDITQEFPGKGKALFQVNQWLTWLETAEEEESEEEAD
As to B1, the binding result in assay [1] and in assay [2] was “binds” each time.
